Data source: PubChem BioAssay AID1224826 (NIAID, 2016)
Purpose: 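Regulators of Tlr4 signalling leading to Tnf-alpha expression in macrophages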 (primary screen). System: RAW264.7 G9 macrophages from mouse bearing reporters for p65 (GFP) and the Tnf promoter (mCherry). Knock-down reagent: siRNA pool against mouse genes, 100 nM. Timing: 16 h of LPS stimulation, after 2 days of siRNA transfection. Treatment: bacterial lipopolysaccharide (Salmonella minnesota R595), 10 ng/ml. Detection: 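Imaged Tnf reporter mCherry in nuclei, minus background, normalised per plate to the median and expressed as robust z-scores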. Direction: Tnf reporter robust z-score: higher = stronger Tnf promoter reporter signal after LPS. Rule for the call: 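a well counts as active at a score of -1.3 or below (Tlr4 knock-down control median) or above 3 (raised signal); controls and wells holding fewer than 50 cells are excluded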. Calls: active = Tnf reporter clearly lowered or raised; inactive = no clear change in Tnf reporter.
Shown is one part, drawn at random, of about 17,000 reagents. About 1,110 of all reagents (6.6%) count as active. 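Active means lowered or raised reporter signal; replicate intensities are raw and not normalised per plate.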 The numbers tell different reagents against one gene apart. Further read-outs or replicates are left out here.

gene | pool no. | Tnf reporter robust z-score | fewer than 50 cells in well | outcome
Or5b108 (GeneID 258688) | 1 | -0.2 | enough cells in well | inactive
Or8b57 (GeneID 258824) | 1 | 0.34 | enough cells in well | inactive
Acoxl (GeneID 74121) | 1 | 1.6 | enough cells in well | inactive
Bzw1 (GeneID 66882) | 1 | 1.5 | enough cells in well | inactive
Or4d2 (GeneID 258408) | 1 | – | fewer than 50 cells per well; well left out of calls | inactive
Ralb (GeneID 64143) | 1 | -0.87 | enough cells in well | inactive
Tmprss5 (GeneID 80893) | 1 | – | fewer than 50 cells per well; well left out of calls | inactive
Sult1c1 (GeneID 20888) | 1 | 1.59 | enough cells in well | inactive
Ak4 (GeneID 11639) | 1 | -0.55 | enough cells in well | inactive
Aldh3b1 (GeneID 67689) | 1 | -0.59 | enough cells in well | inactive
Ms4a4d (GeneID 66607) | 1 | 0.39 | enough cells in well | inactive
Kdm4b (GeneID 193796) | 1 | -1.11 | enough cells in well | inactive
Rassf1 (GeneID 56289) | 1 | 0.34 | enough cells in well | inactive
Prpf6 (GeneID 68879) | 1 | – | fewer than 50 cells per well; well left out of calls | inactive
Acer2 (GeneID 230379) | 1 | -1.03 | enough cells in well | inactive
Acer2 (GeneID 230379) | 2 | -0.71 | enough cells in well | inactive
Or2b7 (GeneID 404335) | 1 | -0.18 | enough cells in well | inactive
Rab17 (GeneID 19329) | 1 | 0.07 | enough cells in well | inactive
Gpr135 (GeneID 238252) | 1 | 0.85 | enough cells in well | inactive
Pcdh8 (GeneID 18530) | 1 | 0.76 | enough cells in well | inactive
Synpo2 (GeneID 118449) | 1 | 0.36 | enough cells in well | inactive
Ccl22 (GeneID 20299) | 1 | 1.15 | enough cells in well | inactive
Pus1 (GeneID 56361) | 1 | 0.31 | enough cells in well | inactive
Uqcr10 (GeneID 66152) | 1 | 1.84 | enough cells in well | inactive
Ap1s3 (GeneID 252903) | 1 | -0.99 | enough cells in well | inactive
Nap1l1 (GeneID 53605) | 1 | 0.32 | enough cells in well | inactive
5730455P16Rik (GeneID 70591) | 1 | 1.13 | enough cells in well | inactive
Zfp462 (GeneID 242466) | 1 | 0.06 | enough cells in well | inactive
Cd24a (GeneID 12484) | 1 | -0.86 | enough cells in well | inactive
Cx3cr1 (GeneID 13051) | 1 | 0.56 | enough cells in well | inactive
Arhgef7 (GeneID 54126) | 1 | -0.82 | enough cells in well | inactive
Slc26a2 (GeneID 13521) | 1 | 1.52 | enough cells in well | inactive
Rrbp1 (GeneID 81910) | 1 | -1.41 | enough cells in well | active
Wwp1 (GeneID 107568) | 1 | – | fewer than 50 cells per well; well left out of calls | inactive
Fgd1 (GeneID 14163) | 1 | 0.38 | enough cells in well | inactive
Yipf2 (GeneID 74766) | 1 | 0.91 | enough cells in well | inactive
Hapln4 (GeneID 330790) | 1 | 1.27 | enough cells in well | inactive
Bcl7a (GeneID 77045) | 1 | -0.92 | enough cells in well | inactive
Npc1 (GeneID 18145) | 1 | 0.39 | enough cells in well | inactive
Sox1 (GeneID 20664) | 1 | 0.81 | enough cells in well | inactive
Polr2m (GeneID 28015) | 1 | -0.79 | enough cells in well | inactive
Ccdc42 (GeneID 276920) | 1 | -0.59 | enough cells in well | inactive
Nelfcd (GeneID 57314) | 1 | 0.03 | enough cells in well | inactive
Spata7 (GeneID 104871) | 1 | -1 | enough cells in well | inactive
Or8b39 (GeneID 258415) | 1 | 2.53 | enough cells in well | inactive
Slc43a3 (GeneID 58207) | 1 | – | fewer than 50 cells per well; well left out of calls | inactive
Nlrp3 (GeneID 216799) | 1 | -0.46 | enough cells in well | inactive
Lce1f (GeneID 67828) | 1 | – | fewer than 50 cells per well; well left out of calls | inactive
Mtcp1 (GeneID 17763) | 1 | -0.41 | enough cells in well | inactive
Slc52a3 (GeneID 69698) | 1 | – | fewer than 50 cells per well; well left out of calls | inactive
A330035P11Rik (GeneID 319727) | 1 | -0.87 | enough cells in well | inactive
Trim14 (GeneID 74735) | 1 | 0.18 | enough cells in well | inactive
Rab6b (GeneID 270192) | 1 | -1.02 | enough cells in well | inactive
Ppp2r2d (GeneID 52432) | 1 | – | fewer than 50 cells per well; well left out of calls | inactive
Sarm1 (GeneID 237868) | 1 | 0.87 | enough cells in well | inactive
Cdc42bpg (GeneID 240505) | 1 | 1.78 | enough cells in well | inactive
Gfi1 (GeneID 14581) | 1 | -0.36 | enough cells in well | inactive
Txlnb (GeneID 378431) | 1 | – | fewer than 50 cells per well; well left out of calls | inactive
